According to paper PMC6925586:
These are yes or no findings as the source states them, for the method shown. In cells and extracts the contact can be indirect. Some results given as binding are weak or reduced against the parent protein; the word gives no strength.

The chains behind the UniProt entries cited, without tags or fusion partners. Where a name states a change or a piece, a line headed by the entry shows the natural chain unless it says otherwise. Residues count along the entry.
UniProt P09055, residues 21-798: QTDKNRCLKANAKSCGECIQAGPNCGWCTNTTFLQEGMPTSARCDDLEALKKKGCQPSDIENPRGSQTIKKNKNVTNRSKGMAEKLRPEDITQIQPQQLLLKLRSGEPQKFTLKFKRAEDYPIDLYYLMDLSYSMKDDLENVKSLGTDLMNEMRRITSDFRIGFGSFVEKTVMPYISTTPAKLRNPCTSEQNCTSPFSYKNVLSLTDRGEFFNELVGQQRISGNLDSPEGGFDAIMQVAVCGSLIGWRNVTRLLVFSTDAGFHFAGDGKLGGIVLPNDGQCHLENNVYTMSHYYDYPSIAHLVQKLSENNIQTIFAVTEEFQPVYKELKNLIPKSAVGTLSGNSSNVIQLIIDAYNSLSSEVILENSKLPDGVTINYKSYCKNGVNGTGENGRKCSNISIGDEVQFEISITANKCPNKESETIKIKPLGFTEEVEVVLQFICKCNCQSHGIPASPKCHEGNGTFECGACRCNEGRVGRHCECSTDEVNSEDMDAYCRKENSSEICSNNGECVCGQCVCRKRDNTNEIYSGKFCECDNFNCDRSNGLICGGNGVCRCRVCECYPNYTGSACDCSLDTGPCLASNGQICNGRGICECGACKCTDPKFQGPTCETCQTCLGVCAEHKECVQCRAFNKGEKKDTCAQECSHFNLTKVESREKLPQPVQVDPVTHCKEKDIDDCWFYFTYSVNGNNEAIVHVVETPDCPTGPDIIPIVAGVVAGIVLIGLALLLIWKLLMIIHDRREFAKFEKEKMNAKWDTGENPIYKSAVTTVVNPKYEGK
UniProt P15056: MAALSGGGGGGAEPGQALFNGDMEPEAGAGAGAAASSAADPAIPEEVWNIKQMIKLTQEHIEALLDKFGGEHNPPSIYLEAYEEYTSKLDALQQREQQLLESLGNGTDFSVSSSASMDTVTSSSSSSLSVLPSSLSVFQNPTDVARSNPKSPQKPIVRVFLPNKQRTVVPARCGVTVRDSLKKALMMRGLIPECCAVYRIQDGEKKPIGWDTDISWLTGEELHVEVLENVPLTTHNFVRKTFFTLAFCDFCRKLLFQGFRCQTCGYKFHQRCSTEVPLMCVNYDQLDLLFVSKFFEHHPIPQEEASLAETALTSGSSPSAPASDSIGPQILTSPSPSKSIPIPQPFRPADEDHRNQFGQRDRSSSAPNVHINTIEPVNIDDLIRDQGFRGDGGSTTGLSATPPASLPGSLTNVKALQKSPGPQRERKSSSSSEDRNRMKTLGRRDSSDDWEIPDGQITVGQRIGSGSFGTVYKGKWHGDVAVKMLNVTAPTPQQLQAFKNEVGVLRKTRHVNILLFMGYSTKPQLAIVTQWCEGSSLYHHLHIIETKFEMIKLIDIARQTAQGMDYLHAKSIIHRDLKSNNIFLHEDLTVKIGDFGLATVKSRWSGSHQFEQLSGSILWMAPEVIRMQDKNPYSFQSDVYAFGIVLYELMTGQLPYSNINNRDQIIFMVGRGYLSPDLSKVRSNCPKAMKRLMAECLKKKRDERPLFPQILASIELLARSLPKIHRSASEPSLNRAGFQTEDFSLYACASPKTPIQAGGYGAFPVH

What was measured:
[1] = target: T1, syndecan-4 (mouse (endogenous in Swiss 3T3)) (UniProt O35988); test: co-IP; Swiss 3T3 cells induced to overexpress TG2, treated with the NO donor SNAP for 48 hours; with SNAP less TG2 complex with ITGβ-1 and SDC-4, more with PDGFR-β
T1 sequence: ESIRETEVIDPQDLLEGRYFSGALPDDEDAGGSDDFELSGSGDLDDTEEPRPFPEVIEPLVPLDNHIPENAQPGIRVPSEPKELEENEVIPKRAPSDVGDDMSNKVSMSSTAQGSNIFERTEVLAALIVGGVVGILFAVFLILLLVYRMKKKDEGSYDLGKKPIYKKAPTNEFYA

[2] = target: integrin β-1 (mouse (endogenous in Swiss 3T3)) (UniProt P09055); test: as above
NLRP7 = target: T2, NLRP7 (UniProt Q8WX94); test: co-IP; Hec1a endometrial cancer cells
T2 sequence: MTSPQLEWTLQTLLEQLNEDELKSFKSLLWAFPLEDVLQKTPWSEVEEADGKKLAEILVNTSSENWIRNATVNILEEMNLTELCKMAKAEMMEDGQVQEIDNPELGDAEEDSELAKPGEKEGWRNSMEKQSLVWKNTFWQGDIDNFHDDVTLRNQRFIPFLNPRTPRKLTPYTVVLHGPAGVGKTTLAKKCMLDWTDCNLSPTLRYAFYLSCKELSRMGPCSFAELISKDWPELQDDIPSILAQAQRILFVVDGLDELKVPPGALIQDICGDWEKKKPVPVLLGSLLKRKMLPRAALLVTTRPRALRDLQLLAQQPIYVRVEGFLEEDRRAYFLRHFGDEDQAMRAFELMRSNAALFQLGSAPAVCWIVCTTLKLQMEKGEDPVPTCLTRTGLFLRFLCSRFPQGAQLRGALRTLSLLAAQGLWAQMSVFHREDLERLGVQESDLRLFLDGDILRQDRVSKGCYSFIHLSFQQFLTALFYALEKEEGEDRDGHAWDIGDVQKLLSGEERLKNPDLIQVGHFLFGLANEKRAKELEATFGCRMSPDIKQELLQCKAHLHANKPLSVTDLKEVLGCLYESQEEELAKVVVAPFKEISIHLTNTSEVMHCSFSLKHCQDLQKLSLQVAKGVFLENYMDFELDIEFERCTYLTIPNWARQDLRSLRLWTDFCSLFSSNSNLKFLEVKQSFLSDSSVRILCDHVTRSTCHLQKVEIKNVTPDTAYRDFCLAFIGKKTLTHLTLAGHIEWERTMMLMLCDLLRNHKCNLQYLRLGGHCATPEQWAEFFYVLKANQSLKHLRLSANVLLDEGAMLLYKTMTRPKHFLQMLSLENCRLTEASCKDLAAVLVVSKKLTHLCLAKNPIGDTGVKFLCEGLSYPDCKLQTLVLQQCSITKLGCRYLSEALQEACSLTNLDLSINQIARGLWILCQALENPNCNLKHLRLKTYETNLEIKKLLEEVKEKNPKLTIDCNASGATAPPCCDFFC

[3] = target: B-Raf S446D (phosphomimetic, active form) (UniProt P15056); test: pull-down; His-pull down from lysates of MCF-7 cells transfected with His6-tagged constructs; non-mutated Raf kinases phosphatase treated; bait not stated

B1: tissue transglutaminase (TG2), overexpressed in induced Swiss 3T3 cells (enzyme, UniProt P21980 1-687)
chain: MAEELVLERCDLELETNGRDHHTADLCREKLVVRRGQPFWLTLHFEGRNYEASVDSLTFSVVTGPAPSQEAGTKARFPLRDAVEEGDWTATVVDQQDCTLSLQLTTPANAPIGLYRLSLEASTGYQGSSFVLGHFILLFNAWCPADAVYLDSEEERQEYVLTQQGFIYQGSAKFIKNIPWNFGQFEDGILDICLILLDVNPKFLKNAGRDCSRRSSPVYVGRVVSGMVNCNDDQGVLLGRWDNNYGDGVSPMSWIGSVDILRRWKNHGCQRVKYGQCWVFAAVACTVLRCLGIPTRVVTNYNSAHDQNSNLLIEYFRNEFGEIQGDKSEMIWNFHCWVESWMTRPDLQPGYEGWQALDPTPQEKSEGTYCCGPVPVRAIKEGDLSTKYDAPFVFAEVNADVVDWIQQDDGSVHKSINRSLIVGLKISTKSVGRDEREDITHTYKYPEGSSEEREAFTRANHLNKLAEKEETGMAMRIRVGQSMNMGSDFDVFAHITNNTAEEYVCRLLLCARTVSYNGILGPECGTKYLLNLNLEPFSEKSVPLCILYEKYRDCLTESNLIKVRALLVEPVINSYLLAERDLYLENPEIKIRILGEPKQKRKLVAEVSLQNPLPVALEGCTFTVEGAGLTEEQKTVEIPDPVEAGEEVKVRMDLLPLHMGLHKLVVNFESDKLKAVKGFRNVIIGPA
binding [1]: binds
binding [2]: binds

B2: RalB (protein, UniProt P11234 1-206)
chain: MAANKSKGQSSLALHKVIMVGSGGVGKSALTLQFMYDEFVEDYEPTKADSYRKKVVLDGEEVQIDILDTAGQEDYAAIRDNYFRSGEGFLLVFSITEHESFTATAEFREQILRVKAEEDKIPLLVVGNKSDLEERRQVPVEEARSKAEEWGVQYVETSAKTRANVDKVFFDLMREIRTKKMSENKDKNGKKSSKNKKSFKERCCLL
binding (NLRP7): binds

B3: BRAT1 (protein, UniProt Q6PJG6 1-821)
chain: MDPECAQLLPALCAVLVDPRQPVADDTCLEKLLDWFKTVTEGESSVVLLQEHPCLVELLSHVLKVQDLSSGVLSFSLRLAGTFAAQENCFQYLQQGELLPGLFGEPGPLGRATWAVPTVRSGWIQGLRSLAQHPSALRFLADHGAVDTIFSLQGDSSLFVASAASQLLVHVLALSMRGGAEGQPCLPGGDWPACAQKIMDHVEESLCSAATPKVTQALNVLTTTFGRCQSPWTEALWVRLSPRVACLLERDPIPAAHSFVDLLLCVARSPVFSSSDGSLWETVARALSCLGPTHMGPLALGILKLEHCPQALRTQAFQVLLQPLACVLKATVQAPGPPGLLDGTADDATTVDTLLASKSSCAGLLCRTLAHLEELQPLPQRPSPWPQASLLGATVTVLRLCDGSAAPASSVGGHLCGTLAGCVRVQRAALDFLGTLSQGTGPQELVTQALAVLLECLESPGSSPTVLKKAFQATLRWLLSSPKTPGCSDLGPLIPQFLRELFPVLQKRLCHPCWEVRDSALEFLTQLSRHWGGQADFRCALLASEVPQLALQLLQDPESYVRASAVTAMGQLSSQGLHAPTSPEHAEARQSLFLELLHILSVDSEGFPRRAVMQVFTEWLRDGHADAAQDTEQFVATVLQAASRDLDWEVRAQGLELALVFLGQTLGPPRTHCPYAVALPEVAPAQPLTEALRALCHVGLFDFAFCALFDCDRPVAQKSCDLLLFLRDKIASYSSLREARGSPNTASAEATLPRWRAGEQAQPPGDQEPEAVLAMLRSLDLEGLRSTLAESSDHVEKSPQSLLQDMLATGGFLQGDEADCY
binding (NLRP7): binds

B4: BAG-1L (large isoform of Bcl-2 associated athanogene 1) (protein, UniProt Q99933-1 1-345)
chain: MAQRGGARRPRGDRERLGSRLRALRPGREPRQSEPPAQRGPPPSGRPPARSTASGHDRPTRGAAAGARRPRMKKKTRRRSTRSEELTRSEELTLSEEATWSEEATQSEEATQGEEMNRSQEVTRDEESTRSEEVTREEMAAAGLTVTVTHSNEKHDLHVTSQQGSSEPVVQDLAQVVEEVIGVPQSFQKLIFKGKSLKEMETPLSALGIQDGCRVMLIGKKNSPQEEVELKKLKHLEKSVEKIADQLEELNKELTGIQQGFLPKDLQAEALCKLDRRVKATIEQFMKILEEIDTLILPENFKDSRLKRKGLVKKVQAFLAECDTVEQNICQETERLQSTNFALAE
binding [3]: binds
